Reference: US5989832A, “Method for screening for non-tetracycline efflux pump inhibitors” (Microcide Pharmaceuticals, Inc., priority 1995, dated 1999)
At least one structure is not confirmed: it was looked up by name or label, or the drawing left a doubt. Peptide text beside a SMILES is read from it.

How the values were obtained:
[1] = system: P. aeruginosa (26 strains); test: Ciprofloxacin MIC by broth microdilution, 18 clinical isolates and 8 laboratory strains; assay type: cell-based, Pseudomonas aeruginosa; conditions: all strains tested (n=26)
[2] = system: enterobacteriaceae and Pseudomonas species; test: Potentiation of ciprofloxacin, other species; assay type: cell-based; conditions: most enterobacteriaceae and Pseudomonas species
[3] = system: P. aeruginosa PAO1 and K385; test: Potentiation of a variety of antibiotics (MIC), PAO1 and K385

Q: What does the source list for `N=C(N)NCCC[C@H](NC(=O)[C@@H](N)Cc1ccccc1)C(=O)Nc1ccc2ccccc2c1` [L-phenylalanyl-L-arginyl-β-naphthylamide] (HELM PEPTIDE1{F.R.[c1ccc2cc(N[*:1])ccc2c1]}$$$$V2.0)?
A: effect on ciprofloxacin MICs [1]: reduced ciprofloxacin MICs; susceptibility to ciprofloxacin [2]: augmented; relationship between relative hydrophobicity of four amphoteric fluoroquinolones and degree of reduction of the MIC [3]: direct relationship
